Measured values: PMC5520498
No constants are given. Whether binding was seen depends on the method and setting. Tags and fused reporters may be left off the sequences shown.

Target: T1, GST-MAGE-C2 (UniProt Q9UBF1)
T1 sequence: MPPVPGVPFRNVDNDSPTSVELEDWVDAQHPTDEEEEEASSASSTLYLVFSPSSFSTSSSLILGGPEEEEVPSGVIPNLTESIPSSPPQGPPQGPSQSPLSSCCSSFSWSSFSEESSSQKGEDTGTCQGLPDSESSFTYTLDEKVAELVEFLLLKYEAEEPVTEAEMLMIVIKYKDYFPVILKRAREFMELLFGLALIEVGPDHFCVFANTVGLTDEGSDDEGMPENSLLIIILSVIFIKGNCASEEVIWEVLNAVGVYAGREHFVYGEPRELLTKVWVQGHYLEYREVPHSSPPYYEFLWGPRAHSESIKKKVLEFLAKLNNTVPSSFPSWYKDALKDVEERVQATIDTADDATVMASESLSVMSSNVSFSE
Assay: pull-down; in vitro protein-binding assay with recombinant proteins purified from bacteria: His-FBP1 with GST, GST-TRIM28 or GST-MAGE-C2; western blot; both purified

binding: no binding
Substance: His-FBP1 (human) (enzyme)
